Tests used:
Cytochrome P450 2C19 = Cytochrome P450 2C19 (Homo sapiens, UniProt P33261); experiment: Inhibition of human CYP2C19 expressed in baculovirus infected insect cells using beetle D-luciferin as substrate preincubated for 30 mins followed by NADPH addition and measured after 30 mins by CYP450-Glo assay
Cytochrome P450 2D6 = Cytochrome P450 2D6 (Homo sapiens, UniProt P10635); experiment: Inhibition of human CYP2D6 expressed in baculovirus infected insect cells using beetle D-luciferin as substrate preincubated for 30 mins followed by NADPH addition and measured after 30 mins by CYP450-Glo assay
Cytochrome P450 2C9 = Cytochrome P450 2C9 (Homo sapiens, UniProt P11712); experiment: Inhibition of human CYP2C9 expressed in baculovirus infected insect cells using beetle D-luciferin as substrate preincubated for 30 mins followed by NADPH addition and measured after 30 mins by CYP450-Glo assay

By UniProt entry, the sequences of proteins in these tests, tags left out.
UniProt P33261, whole entry: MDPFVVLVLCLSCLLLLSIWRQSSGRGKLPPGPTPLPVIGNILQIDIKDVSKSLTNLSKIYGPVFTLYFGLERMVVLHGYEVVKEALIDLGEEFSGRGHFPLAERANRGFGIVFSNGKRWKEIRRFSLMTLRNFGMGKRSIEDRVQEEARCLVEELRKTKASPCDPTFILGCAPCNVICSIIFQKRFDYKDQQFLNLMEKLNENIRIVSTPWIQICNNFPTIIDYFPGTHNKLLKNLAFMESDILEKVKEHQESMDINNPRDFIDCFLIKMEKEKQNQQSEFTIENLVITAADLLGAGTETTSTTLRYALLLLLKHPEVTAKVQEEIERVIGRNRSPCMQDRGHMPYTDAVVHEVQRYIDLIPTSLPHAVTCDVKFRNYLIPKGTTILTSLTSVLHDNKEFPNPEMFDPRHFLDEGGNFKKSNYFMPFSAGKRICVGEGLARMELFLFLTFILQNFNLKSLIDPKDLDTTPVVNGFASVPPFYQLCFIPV
UniProt P10635, whole entry: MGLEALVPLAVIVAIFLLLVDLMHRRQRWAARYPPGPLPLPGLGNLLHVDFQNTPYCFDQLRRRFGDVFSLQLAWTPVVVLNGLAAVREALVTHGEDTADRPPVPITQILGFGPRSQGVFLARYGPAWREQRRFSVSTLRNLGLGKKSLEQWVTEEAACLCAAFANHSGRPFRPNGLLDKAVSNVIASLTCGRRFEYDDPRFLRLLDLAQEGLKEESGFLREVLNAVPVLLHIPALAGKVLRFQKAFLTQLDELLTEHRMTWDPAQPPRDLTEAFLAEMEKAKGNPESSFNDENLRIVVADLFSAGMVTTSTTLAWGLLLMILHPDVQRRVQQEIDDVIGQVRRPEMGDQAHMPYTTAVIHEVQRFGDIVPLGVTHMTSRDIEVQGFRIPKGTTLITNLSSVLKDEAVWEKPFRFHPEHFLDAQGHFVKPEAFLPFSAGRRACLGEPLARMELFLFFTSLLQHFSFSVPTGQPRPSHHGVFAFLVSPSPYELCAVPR
UniProt P11712, whole entry: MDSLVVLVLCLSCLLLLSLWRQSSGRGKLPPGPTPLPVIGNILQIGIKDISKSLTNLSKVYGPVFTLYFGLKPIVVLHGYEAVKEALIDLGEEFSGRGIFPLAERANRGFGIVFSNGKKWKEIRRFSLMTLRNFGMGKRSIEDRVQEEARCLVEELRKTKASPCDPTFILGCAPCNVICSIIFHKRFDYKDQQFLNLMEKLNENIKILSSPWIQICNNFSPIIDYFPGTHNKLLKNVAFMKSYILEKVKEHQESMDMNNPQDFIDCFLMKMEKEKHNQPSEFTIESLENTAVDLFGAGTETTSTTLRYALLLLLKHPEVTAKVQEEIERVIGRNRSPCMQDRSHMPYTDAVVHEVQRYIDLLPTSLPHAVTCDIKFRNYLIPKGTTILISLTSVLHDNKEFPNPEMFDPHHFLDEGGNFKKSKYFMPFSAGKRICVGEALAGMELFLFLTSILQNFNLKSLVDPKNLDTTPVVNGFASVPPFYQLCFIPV

Measured: IC50

Nc1nc2ccc(OC(F)(F)F)cc2s1 [RILUZOLE]
> 25 µM: all assays above

— ChEMBL document CHEMBL4387708, “Enhancement of Benzothiazoles as Pteridine Reductase-1 Inhibitors for the Treatment of Trypanosomatidic Infections” (J Med Chem, 2019)
